Source: PubChem BioAssay AID493014 (National Center for Advancing Translational Sciences (NCATS), 2011)
The whole screen tested about 340,000 compounds, of which about 170 (0.05%) were called active. The shares of active, inactive and inconclusive entries below differ from those in the screen. Calls come from the whole dose curve; as a rule, active = well fitted inhibition curve with a large enough effect in the signal ratio, with a control signal flat (not every such curve was filed as active); inconclusive = small, poorly fitted or top-dose-only effect, or effect the other way, or a change in a side signal; inactive = flat fitted curve, though single readings scatter; the % refers to the signal ratio. A potency beside an inconclusive call is a rough fit, not a confirmed value.
Potency is the fitted concentration of half-maximal effect.

Experiment: qHTS Assay to Find Inhibitors of Chronic Active B-Cell Receptor Signaling;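 for activity change, negative = inhibition: plate controls were basal doxycycline-induced cells for no effect and cells given 10 µM MG132 for full effect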
Conditions: ABC-DLBCL IkBa-CBG/CBR reporter, luminescence ratio (green luciferase fused to IkBa over red control in TMD8 lymphoma cells), 4 h; activity change, negative = inhibition: at 46.1 µM (top of the series) unless noted
In short: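 Compounds up to 46 uM were incubated four hours with TMD8 cells whose green CBG68 luciferase is fused to IkappaBalpha; red CBR luminescence normalised the signal, and concentration-effect curves were fitted to fusion, red and ratio data.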
In the case of `O=[N+]([O-])c1cc(C(F)(F)F)ccc1Sc1nccn1Cc1ccccc1`, the activity change, negative = inhibition is reported as inconclusive: 3.96%.
In the case of `COC(=O)C(Cc1ccccc1)NC(=O)c1ccc(C)cc1` (configuration not stated), the activity change, negative = inhibition is reported as inconclusive: 8.75%.
With `COc1ccc(Sc2ccccc2CN(C)C)cc1OC` the activity change, negative = inhibition was “inactive”.
For `CC(=O)Nc1ccc(NC2=CC(=O)CC(C)(C)C2)cc1`, the Potency was inconclusive: 29.1 µM [rising, partial curve, poor fit].
In the case of `Cc1cccc(-n2nc(C(=O)Nc3ccccc3)n3c(=O)cc(-c4ccccc4)nc23)c1`, the activity change, negative = inhibition is reported as inconclusive: -22.1%.
With `CC(C)(C)NC(=O)COC(=O)c1ccc(NC(=O)CC#N)cc1` the Potency was inconclusive: 35.5 µM [falling, single point].
In the case of `Nc1n[nH]c(-c2ccc(F)cc2)n1`, the activity change, negative = inhibition is reported as “inactive”.
With `Cc1ccc(NC(=O)CSc2nn3c(=O)c(C)nnc3s2)cc1Cl` the activity change, negative = inhibition was inconclusive: 17.7%.
In the case of `CCN1C(=O)N/C(=C/c2ccc(Sc3ccc(C)cc3)o2)C1=O`, the activity change, negative = inhibition is reported as inconclusive: -10.8%.
For `COc1ccc(-c2nnc(SCC(=O)NCCc3ccccc3)nc2-c2ccc(OC)cc2)cc1`, the activity change, negative = inhibition was “inactive”.
With `COc1cccc(NC(=O)CSc2nc3ccccc3c3nc4ccccc4n23)c1` the activity change, negative = inhibition was inconclusive: 7.34%.
In the case of `Cc1ccc2[nH]c(=O)c(CN(CCCN(C)C)C(=S)NCCc3ccccc3)cc2c1`, the Potency is reported as inconclusive: 6.31 µM [falling, single point].
For `Cc1ccc(-c2nnc(-c3ccc4c(c3)OCO4)o2)cc1`, the activity change, negative = inhibition was inconclusive: 16.8%.
For `Cc1cc(Br)ccc1-n1[nH]c(C)c(C=Nc2cccc3nsnc23)c1=O`, the activity change, negative = inhibition was “inactive”.
For `CC(C)C(=O)Nc1ccc2c(c1)nc1n2CCSC1`, the activity change, negative = inhibition was inconclusive: 3.51%.
In the case of `COc1cccc(C(=O)/C=C/c2ccc(OCC#N)c(OC)c2)c1`, the activity change, negative = inhibition is reported as inconclusive: -15.9%.
With `S=C(NCCc1ccccc1)Nc1ccc(Br)cn1` the activity change, negative = inhibition was inconclusive: 2.48%.
In the case of `Cc1ccc(C2=NNC(c3cccc(F)c3)S2)cc1` (configuration not stated), the Potency is reported as inconclusive: 7.08 µM [falling, full curve].
With `COC(=O)c1c(C)[nH]c(C(=O)COC(=O)Cn2cc(C(F)(F)F)ccc2=O)c1C` the activity change, negative = inhibition was “inactive”.
In the case of `COc1ccc2nc3cc(Cl)ccc3c(Nc3cc(C(C)C)c(O)cc3C)c2c1`, the Potency is reported as inconclusive: 22.4 µM [rising, single point].
In the case of `C#CCOCCOCCOCCNc1nc(N2CCOCC2)nc(N2CCN(C(=O)CCCCCCCCCCNC(=O)[C@H]([C@@H](C)CC)n3cc(CCCCN=C(N)N)nn3)CC2)n1`, the activity change, negative = inhibition is reported as inconclusive: -12.2%.
For `Cc1ccc(NC(=O)c2cc(-c3cccs3)on2)cc1C`, the Potency was inconclusive: 35.5 µM [rising, single point].
For `CCN(CC)C1CCN(C(=O)c2cc(COc3ccc(F)cc3Cl)on2)C1` (configuration not stated), the activity change, negative = inhibition was inconclusive: 25.4%.
For `O=C1CC(N2CCN(Cc3ccccc3)CC2)C(=O)N1` (configuration not stated), the activity change, negative = inhibition was “inactive”.
With `COc1ccc(C(=O)NNC(=S)NC(=O)c2ccccc2)cc1` the activity change, negative = inhibition was inconclusive: 5%.
In the case of `COCCn1c(SCC(=O)Nc2nnc(C)s2)nnc1-c1ccncc1`, the activity change, negative = inhibition is reported as “inactive”.
In the case of `CC(C)NC(=O)CN1CCN(c2ncccn2)CC1`, the activity change, negative = inhibition is reported as “inactive”.
In the case of `O=C(COC(=O)Cc1ccc(Cl)cc1)Nc1cc(S(=O)(=O)N2CCOCC2)ccc1N1CCCC1`, the activity change, negative = inhibition is reported as “inactive”.
For `CC1CCN(C(=O)COc2ccc(Nc3ccccc3)cc2)CC1`, the activity change, negative = inhibition was “inactive”.
In the case of `Cc1ccc(-c2nc3ccccc3[nH]2)cc1N`, the Potency is reported as inconclusive: 20.6 µM [falling, single point].
For `O=C(Nc1ccc(F)cc1)c1cccc(NC(=O)C2C3CC4OC(=O)C2C4C3)c1` (configuration not stated), the activity change, negative = inhibition was inconclusive: -27.4%.
With `Cc1cc(N)n(-c2ccc3ccccc3c2)n1` the activity change, negative = inhibition was inconclusive: -3.02%.
For `CSc1ccc(-c2nc(CSCC(=O)NCCCN3CCCC3=O)c(C)o2)cc1`, the Potency was inconclusive: 6.31 µM [falling, single point].
In the case of `CCN(C[C@H]1N[C@@](Cc2ccccc2)(C(=O)OC)[C@H]2C(=O)N(Cc3ccccc3)C(=O)[C@@H]12)C(=O)Nc1ccc(F)cc1`, the activity change, negative = inhibition is reported as inconclusive: -4.38%.
In the case of `O=c1c2ccccc2nnn1Cc1ccccc1`, the Potency is reported as inconclusive: 0.631 µM [falling, full curve, poor fit].
With `CCN(C(=O)COC(=O)COc1ccc(Cl)c(C)c1)C1CCS(=O)(=O)C1` (configuration not stated) the activity change, negative = inhibition was “inactive”.
With `CC(C)=CC(=O)Nc1nnc(C(C)C)s1` the activity change, negative = inhibition was inconclusive: 2.56%.
In the case of `CC(C)(C)c1ccc(C(=O)N/N=C/c2ccccn2)cc1`, the activity change, negative = inhibition is reported as inconclusive: -12.9%.
In the case of `COc1ccc(CCNC(=O)CSc2nnc(CNc3ccc(Cl)cc3)o2)cc1OC`, the activity change, negative = inhibition is reported as “inactive”.
In the case of `O=C(CS(=O)(=O)c1ccccc1)Nc1nnc(-c2cccs2)o1`, the Potency is reported as inconclusive: 23.1 µM [falling, single point].
With `Cc1cnc(SCc2ccc(Cl)cc2Cl)[nH]c1=O` the activity change, negative = inhibition was inconclusive: 3.06%.
With `Cc1ccc2nc(N3CCN(C(=O)c4ccco4)CC3)c3nncn3c2c1` the activity change, negative = inhibition was inconclusive: 14.7%.
For `COCCN(C(=O)Cc1cccs1)C(C(=O)NCc1ccc(OC)cc1)c1ccc(C)cc1` (configuration not stated), the activity change, negative = inhibition was inconclusive: -22.8%.
In the case of `Cc1ccc(-n2nc3ccc(NC(=O)/C=C/c4ccco4)cc3n2)cc1`, the activity change, negative = inhibition is reported as inconclusive: 8.02%.
For `CC(CC(=O)Nc1cc(C(F)(F)F)ccc1Cl)c1ccccc1` (configuration not stated), the activity change, negative = inhibition was inconclusive: 7.13%.
In the case of `C#Cc1cccc(NC(=O)c2ccc3c(c2)C(=O)N(Cc2cccnc2)C3=O)c1`, the activity change, negative = inhibition is reported as “inactive”.
In the case of `O=C(CC(C(=O)N1CCc2ccccc21)n1ccnc1)NCc1cccnc1` (configuration not stated), the activity change, negative = inhibition is reported as inconclusive: 10.3%.
With `NC(=O)CC1SC(N)=NC1=O` (configuration not stated) the activity change, negative = inhibition was inconclusive: -9.57%.
In the case of `COc1ccc(COCC(O)CN2CCC(C(N)=O)CC2)cc1OC` (configuration not stated), the activity change, negative = inhibition is reported as inconclusive: -8.65%.
With `COc1ccc([N+](=O)[O-])cc1NC(=O)c1ccccc1SC` the activity change, negative = inhibition was “inactive”.
For `Cc1cc(-c2nc(C)c(C(=O)NN)s2)no1`, the Potency was inconclusive: 6.31 µM [falling, single point].
For `c1ccc2[nH]c(NCCCN3CCOCC3)nc2c1`, the activity change, negative = inhibition was inconclusive: 4.05%.
For `Cc1ccsc1C(=O)OCC(=O)Nc1nnc(-c2ccccc2)o1`, the Potency was inconclusive: 18.4 µM [falling, single point].
For `CN(C)C(=O)N1CCNCC1`, the activity change, negative = inhibition was inconclusive: 8.63%.
In the case of `C=CCn1c(=O)c(C(=O)Nc2cccnc2)c(O)c2ccccc21`, the Potency is reported as inconclusive: 29.1 µM [falling, single point].
With `O=C(N=Nc1c(O)n(C2OC(=O)c3ccccc32)c2ccccc12)c1ccc(O)cc1` (configuration not stated) the Potency was inconclusive: 2.24 µM [falling, partial curve, poor fit].
For `O=C(c1ccc2ccccc2c1)N1CCc2ccccc21`, the Potency was inconclusive: 3.16 µM [falling, partial curve, poor fit].
For `Cc1ccc(S(=O)(=O)N2CCCCC2)cc1NC(=S)NC(=O)c1ccco1`, the activity change, negative = inhibition was inconclusive: 11.4%.
For `C/C(=N\N1C(=O)c2ccccc2NC1c1ccco1)c1ccccc1O` (configuration not stated), the Potency was inconclusive: 28.2 µM [cytotoxic, single point].
In the case of `COc1c(C(=O)NNC(=O)c2ccccc2Cl)csc1Br`, the Potency is reported as inconclusive: 8.91 µM [falling, partial curve].
In the case of `Cc1sc2ncn(C(C)C(=O)OC3CCCCC3)c(=O)c2c1C` (configuration not stated), the Potency is reported as inconclusive: 0.0058 µM [falling, full curve, poor fit].
For `COc1ccc(/C=C2\Oc3ccccc3C2=O)cc1`, the Potency was inconclusive: 23.1 µM [falling, single point].
In the case of `COCCNC(=O)C(c1ccc(F)cc1)N(C(=O)CCC(=O)Nc1nccs1)c1cccc(C)c1` (configuration not stated), the activity change, negative = inhibition is reported as inconclusive: 4.6%.
In the case of `Oc1[nH]c2ccccc2c1C=Nc1ccccc1`, the Potency is reported as inconclusive: 15.8 µM [falling, partial curve].
With `COc1ccc(CNC(=O)C2CCC(CNS(=O)(=O)c3cccc4nsnc34)CC2)cc1` (configuration not stated) the activity change, negative = inhibition was “inactive”.
With `CC(C)c1ccc(OCC(=O)NNC(=S)NC(=O)c2ccco2)c(Br)c1` the activity change, negative = inhibition was “inactive”.
With `COc1ccc(C(=O)N2CCC(O)(c3ccc(F)cc3)CC2)cc1OC` the activity change, negative = inhibition was inconclusive: -3.98%.
In the case of `O=C(NCc1ccccc1)c1cc(-c2ccco2)on1`, the activity change, negative = inhibition is reported as inconclusive: 1.01%.
In the case of `O=C(NCCS(=O)(=O)NCc1ccccn1)c1ccccc1`, the activity change, negative = inhibition is reported as “inactive”.
With `O=C(c1ccccc1Sc1ccc([N+](=O)[O-])cc1)N1CCCCC1` the activity change, negative = inhibition was inconclusive: 0.413%.
In the case of `Cc1ccc(NC(=O)c2cc(-c3ccco3)on2)cc1C`, the Potency is reported as inconclusive: 10 µM [falling, partial curve].
With `CC(OC(=O)c1ccco1)C(=O)Nc1nc(-c2ccccc2)cs1` (configuration not stated) the activity change, negative = inhibition was inconclusive: 0.0071%.
In the case of `COc1ccc(N2C(=O)CN=C2Nc2nc(C)cc(C)n2)cc1`, the Potency is reported as inconclusive: 29.1 µM [falling, single point].
In the case of `Cc1ccc(Nc2cc(C)nc(-c3ccccc3O)n2)cc1`, the Potency is reported as inconclusive: 8.2 µM [rising, partial curve, poor fit].
In the case of `Cn1nc(-c2ccccc2)c(CO)c1Oc1cccc(C(F)(F)F)c1`, the activity change, negative = inhibition is reported as “inactive”.
With `Cc1ccc2nc(/C(C#N)=C\c3cc(O)ccc3[N+](=O)[O-])[nH]c2c1` the activity change, negative = inhibition was inconclusive: 3.5%.
With `Cc1nnc(NC(=O)c2cc(S(=O)(=O)N3CCCCC3)ccc2Cl)s1` the activity change, negative = inhibition was inconclusive: 0.0022%.
In the case of `Cc1csc(NC(=O)Nc2cccc(Cl)c2)n1`, the activity change, negative = inhibition is reported as inconclusive: -2.18%.
With `CC(C)(C)c1ccc2c(c1)C(=O)c1ccccc1C2=O` the activity change, negative = inhibition was inconclusive: 17.3%.
In the case of `O=C1c2ccccc2-c2nc3ccccc3n21`, the Potency is reported as inconclusive: 17.8 µM [falling, single point].
With `CN(C)c1ccc(C(CN)c2c[nH]c3ccccc23)cc1` (configuration not stated) the Potency was inconclusive: 6.31 µM [falling, single point].
For `N/C(Cc1cccs1)=N\OC(=O)COc1ccccc1Cl`, the Potency was inconclusive: 0.92 µM [rising, partial curve, poor fit].
